Results reported in doi:10.1101/2024.12.06.627168.
Results are given in words; binding and its absence hold for the method and conditions named. Binding seen in cells or lysates may run through a third protein. Some results given as binding are weak or reduced against the parent protein; the word gives no strength.

Chains of the proteins cited; added tags and fusions are not shown.
UniProt P01106: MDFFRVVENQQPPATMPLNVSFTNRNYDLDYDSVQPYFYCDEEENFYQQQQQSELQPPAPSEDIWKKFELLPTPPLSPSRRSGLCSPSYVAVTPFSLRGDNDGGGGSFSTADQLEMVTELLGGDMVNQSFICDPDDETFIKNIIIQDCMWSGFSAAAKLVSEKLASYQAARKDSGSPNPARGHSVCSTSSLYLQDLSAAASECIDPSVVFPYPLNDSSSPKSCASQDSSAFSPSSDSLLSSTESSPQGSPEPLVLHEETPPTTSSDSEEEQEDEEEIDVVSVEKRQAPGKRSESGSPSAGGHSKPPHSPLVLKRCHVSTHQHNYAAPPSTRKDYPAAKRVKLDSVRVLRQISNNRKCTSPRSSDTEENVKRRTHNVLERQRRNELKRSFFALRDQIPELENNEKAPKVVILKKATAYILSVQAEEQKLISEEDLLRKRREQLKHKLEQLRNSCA
UniProt P07910: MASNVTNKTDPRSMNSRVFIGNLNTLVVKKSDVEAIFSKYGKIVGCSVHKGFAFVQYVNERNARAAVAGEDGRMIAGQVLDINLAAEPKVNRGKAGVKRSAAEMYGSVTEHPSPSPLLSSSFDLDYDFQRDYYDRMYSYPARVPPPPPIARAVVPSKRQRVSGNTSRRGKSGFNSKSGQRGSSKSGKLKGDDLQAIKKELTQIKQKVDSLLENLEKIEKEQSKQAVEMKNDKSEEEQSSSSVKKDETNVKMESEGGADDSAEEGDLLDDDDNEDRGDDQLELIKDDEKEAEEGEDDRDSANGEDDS
UniProt P35637: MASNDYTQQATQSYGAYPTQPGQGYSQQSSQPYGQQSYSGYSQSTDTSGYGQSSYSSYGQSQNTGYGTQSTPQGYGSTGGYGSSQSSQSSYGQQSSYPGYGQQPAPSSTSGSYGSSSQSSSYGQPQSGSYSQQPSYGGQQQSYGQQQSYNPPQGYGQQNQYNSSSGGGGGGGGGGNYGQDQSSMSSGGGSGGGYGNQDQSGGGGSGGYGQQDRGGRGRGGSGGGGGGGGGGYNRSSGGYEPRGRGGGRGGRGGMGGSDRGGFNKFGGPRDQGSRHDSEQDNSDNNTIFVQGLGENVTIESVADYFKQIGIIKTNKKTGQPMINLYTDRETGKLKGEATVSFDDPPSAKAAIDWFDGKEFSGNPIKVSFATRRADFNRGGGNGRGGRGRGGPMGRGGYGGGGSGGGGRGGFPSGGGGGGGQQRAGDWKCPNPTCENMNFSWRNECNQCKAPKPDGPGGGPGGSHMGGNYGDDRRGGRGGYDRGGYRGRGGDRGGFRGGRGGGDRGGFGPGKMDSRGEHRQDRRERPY
UniProt Q86U44: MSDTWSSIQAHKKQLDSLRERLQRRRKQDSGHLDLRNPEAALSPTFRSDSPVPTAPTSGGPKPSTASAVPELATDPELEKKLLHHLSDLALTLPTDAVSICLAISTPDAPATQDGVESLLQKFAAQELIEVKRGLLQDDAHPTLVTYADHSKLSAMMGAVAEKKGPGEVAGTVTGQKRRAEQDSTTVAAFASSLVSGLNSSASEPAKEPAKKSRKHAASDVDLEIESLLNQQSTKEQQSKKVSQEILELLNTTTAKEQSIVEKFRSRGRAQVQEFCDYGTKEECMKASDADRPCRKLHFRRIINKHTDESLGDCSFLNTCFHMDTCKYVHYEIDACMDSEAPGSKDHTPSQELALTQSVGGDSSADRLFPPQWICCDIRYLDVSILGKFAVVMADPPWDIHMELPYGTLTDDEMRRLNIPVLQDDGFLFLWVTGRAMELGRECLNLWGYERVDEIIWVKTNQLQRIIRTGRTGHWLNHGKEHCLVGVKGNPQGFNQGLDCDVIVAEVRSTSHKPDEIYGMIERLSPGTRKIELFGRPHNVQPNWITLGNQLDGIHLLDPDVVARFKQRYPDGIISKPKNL

Legend:
Experiment in all cases: co-IP
[1] = target: MYC (endogenous, in EtOH-treated control U2OS^MYC-Tet-On cells) (human (endogenous in U2OS)) (UniProt P01106)
[2] = target: HNRNPC (human (endogenous in U2OS)) (UniProt P07910)
[3] = target: T1, ZCCHC8 (human (endogenous in U2OS)) (UniProt Q6NZY4)
T1 sequence: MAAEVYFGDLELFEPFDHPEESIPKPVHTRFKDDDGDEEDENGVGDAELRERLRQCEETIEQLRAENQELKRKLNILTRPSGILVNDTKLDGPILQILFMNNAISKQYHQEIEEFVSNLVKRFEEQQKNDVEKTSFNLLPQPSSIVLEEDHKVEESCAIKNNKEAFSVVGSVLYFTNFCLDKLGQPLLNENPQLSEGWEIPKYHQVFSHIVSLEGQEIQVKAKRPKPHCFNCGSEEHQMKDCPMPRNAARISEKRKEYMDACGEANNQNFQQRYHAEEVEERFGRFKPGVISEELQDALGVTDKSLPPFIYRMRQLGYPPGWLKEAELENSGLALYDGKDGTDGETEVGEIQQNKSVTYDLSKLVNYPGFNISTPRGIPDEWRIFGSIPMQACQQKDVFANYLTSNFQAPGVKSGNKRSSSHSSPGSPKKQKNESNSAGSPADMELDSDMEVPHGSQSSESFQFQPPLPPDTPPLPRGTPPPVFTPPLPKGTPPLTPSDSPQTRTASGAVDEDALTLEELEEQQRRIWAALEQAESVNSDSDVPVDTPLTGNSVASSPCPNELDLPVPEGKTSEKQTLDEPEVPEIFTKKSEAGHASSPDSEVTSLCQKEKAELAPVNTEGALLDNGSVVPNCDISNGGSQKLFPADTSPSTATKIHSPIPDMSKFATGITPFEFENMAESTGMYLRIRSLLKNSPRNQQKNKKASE

[4] = target: FUS (human (endogenous in U2OS)) (UniProt P35637)
[5] = target: T2, RBM15 (human (endogenous in U2OS)) (UniProt Q96T37)
T2 sequence: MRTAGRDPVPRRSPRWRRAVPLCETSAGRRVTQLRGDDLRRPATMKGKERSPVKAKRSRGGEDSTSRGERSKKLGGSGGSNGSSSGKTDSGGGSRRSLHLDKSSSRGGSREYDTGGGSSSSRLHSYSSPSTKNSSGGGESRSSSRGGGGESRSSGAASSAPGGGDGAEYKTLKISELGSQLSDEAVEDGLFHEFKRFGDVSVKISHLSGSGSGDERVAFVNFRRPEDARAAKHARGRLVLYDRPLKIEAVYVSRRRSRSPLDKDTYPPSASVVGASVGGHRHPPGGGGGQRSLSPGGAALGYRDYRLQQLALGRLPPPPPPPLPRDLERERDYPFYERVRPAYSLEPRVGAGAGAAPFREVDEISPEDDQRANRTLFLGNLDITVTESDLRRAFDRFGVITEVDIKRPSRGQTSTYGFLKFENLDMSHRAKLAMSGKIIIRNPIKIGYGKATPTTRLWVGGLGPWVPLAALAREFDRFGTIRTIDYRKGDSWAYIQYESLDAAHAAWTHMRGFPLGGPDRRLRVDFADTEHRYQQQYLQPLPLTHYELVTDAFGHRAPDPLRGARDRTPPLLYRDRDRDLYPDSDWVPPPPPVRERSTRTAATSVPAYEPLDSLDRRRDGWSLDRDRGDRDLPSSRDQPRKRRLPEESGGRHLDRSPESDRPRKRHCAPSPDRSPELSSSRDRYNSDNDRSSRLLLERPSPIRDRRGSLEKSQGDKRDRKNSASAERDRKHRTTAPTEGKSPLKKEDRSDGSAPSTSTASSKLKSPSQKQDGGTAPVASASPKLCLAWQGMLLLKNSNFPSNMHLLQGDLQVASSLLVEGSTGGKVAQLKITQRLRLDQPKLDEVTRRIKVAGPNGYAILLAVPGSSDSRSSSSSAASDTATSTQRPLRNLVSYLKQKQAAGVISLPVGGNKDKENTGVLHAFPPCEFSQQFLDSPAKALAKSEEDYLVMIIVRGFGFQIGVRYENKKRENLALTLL

**Q.** FUS (from UniProt P35637 1-526) was tested. Which binding [1] did it give?
**A.** binds

**Q.** With METTL3 (from UniProt Q86U44 1-580) as the substance, how does the binding [1] read?
**A.** binds

**Q.** Which binding [2] does the source give for “MYC (in doxycycline-treated U2OS^MYC-Tet-On cells) (from UniProt P01106 1-454)” here?
**A.** binds

**Q.** What about the binding [3] of the same substance?
**A.** binds

**Q.** What about the binding [4] of the same substance?
**A.** binds

**Q.** And the binding [5]?
**A.** binds
